PubChem BioAssay AID1224828 | NIAID, 2016
Shown is a random part of about 17,000 reagents. 762 of all reagents (4.5%) count as active. 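Active calls include both raised and lowered p65 entry, mostly lowered; wells with fewer than 50 cells lack a z-score.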 The raw values are shown without normalisation. A number with no mark means an inactive call.

Aim: 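Find genes required for NF-kappaB p65 moving into the nucleus after LPS in mouse macrophages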 (primary screen)
Cell system: mouse RAW264.7 G9 macrophage reporter cells (GFP-p65, Tnf promoter-mCherry)
Reagent: siRNA pool against mouse genes, 100 nM
Time to read-out: 2 days siRNA transfection, then 40 min LPS before fixation
Treatment: LPS (Salmonella minnesota R595) at 10 ng/ml
Measured: 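Microscopy ratio of nuclear to perinuclear-ring GFP-p65 signal, scaled to the plate median; gene score is the average of two replicate robust z-scores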
Direction: p65 translocation robust z-score: higher = more nuclear NF-kappaB p65 after LPS than the plate median; nuclear/cytoplasmic p65 ratio: higher = more nuclear NF-kappaB p65
Active means: 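Called active when z exceeds 3.3 or falls under -1.56 (median of Tlr4 controls), giving activity score of at least 50; no calls for control wells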
Calls: active = hit (p65 shift raised or lowered); inactive = no clear change

target | p65 translocation robust z-score | nuclear/cytoplasmic p65 ratio, rep 1 | nuclear/cytoplasmic p65 ratio, rep 2 | low cell count flag
Ada (GeneID 11486) | -0.12 | 1.66 | 1.55 | enough cells to score
A430033K04Rik (GeneID 243308) | 1.03 | 1.53 | 1.65 | enough cells to score
E130006D01Rik (GeneID 269683) | 1.64 | 1.65 | 1.61 | enough cells to score
Dbx2 (GeneID 223843) | -0.87 | 1.3 | 1.42 | enough cells to score
Klhl10 (GeneID 66720) | 1.58 | 1.79 | 1.63 | enough cells to score
Wdpcp (GeneID 216560) | 0.27 | 1.32 | 1.62 | enough cells to score
Rhox3a (GeneID 382209) | – | 1.14 | 1.58 | fewer than 50 cells per well; well left out of scoring
Acadsb (GeneID 66885) | 0.36 | 1.75 | 1.6 | enough cells to score
Tnfsf12 (GeneID 21944) | 0.61 | 1.54 | 1.67 | enough cells to score
Spink10 (GeneID 328971) | – | 1.37 | 1.61 | fewer than 50 cells per well; well left out of scoring
Col9a3 (GeneID 12841) | 0.73 | 1.47 | 1.57 | enough cells to score
Or51b4 (GeneID 18367) | -1.46 | 1.31 | 1.1 | enough cells to score
Or5w22 (GeneID 110511) | -0.2 | 1.54 | 1.43 | enough cells to score
Sp5 (GeneID 64406) | – | 1.35 | 1.19 | fewer than 50 cells per well; well left out of scoring
Ssty1 (GeneID 20611) | 0.19 | 1.45 | 1.36 | enough cells to score
Spata32 (GeneID 328019) | – | 1.56 | 1.52 | fewer than 50 cells per well; well left out of scoring
Arhgef10 (GeneID 234094) | -0.82 | 1.43 | 1.56 | enough cells to score
Pip4k2c (GeneID 117150) | -1.79 (active) | 1.35 | 1.15 | enough cells to score
Vip (GeneID 22353) | -0.89 | 1.27 | 1.46 | enough cells to score
Psme4 (GeneID 103554) | – | 1.7 | 1.11 | fewer than 50 cells per well; well left out of scoring
Comt (GeneID 12846) | 0.01 | 1.48 | 1.38 | enough cells to score
Utp15 (GeneID 105372) | 0.34 | 1.54 | 1.67 | enough cells to score
Mbd3l2 (GeneID 234988) | 0.47 | 1.74 | 1.66 | enough cells to score
Ttc22 (GeneID 230576) | – | 1.33 | 1.24 | fewer than 50 cells per well; well left out of scoring

An excerpt from above, showing only “nuclear/cytoplasmic p65 ratio, rep 1”.
Spata32 (GeneID 328019): 1.56
Arhgef10 (GeneID 234094): 1.43
